Some of the results follow. The exact form of the protein is not confirmed.

For this test, the target named is T1, ETV4 (UniProt P43268).
T1 sequence: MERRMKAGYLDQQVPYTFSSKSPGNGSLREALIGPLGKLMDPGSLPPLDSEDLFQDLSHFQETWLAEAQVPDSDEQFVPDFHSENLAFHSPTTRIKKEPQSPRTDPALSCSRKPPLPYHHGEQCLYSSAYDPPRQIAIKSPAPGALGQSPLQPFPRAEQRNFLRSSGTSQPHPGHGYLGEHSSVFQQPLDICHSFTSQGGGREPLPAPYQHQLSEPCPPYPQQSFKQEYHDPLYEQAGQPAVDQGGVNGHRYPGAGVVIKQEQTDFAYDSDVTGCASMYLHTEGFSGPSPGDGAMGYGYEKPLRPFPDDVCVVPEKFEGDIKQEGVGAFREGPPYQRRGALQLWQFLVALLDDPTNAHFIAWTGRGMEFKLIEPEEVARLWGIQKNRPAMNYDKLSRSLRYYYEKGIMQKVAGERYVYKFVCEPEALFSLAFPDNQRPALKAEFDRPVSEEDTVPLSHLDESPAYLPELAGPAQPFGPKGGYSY
Nature of the test: DAPPL (digital affinity profiling via proximity ligation, sequencing). To be noted: 10 mM Tris-HCl pH 7.5, 50 mM NaCl, 1 mM DTT, 4% glycerol, room temperature, 30 min; GST-TFs on glutathione beads, 16-mer random dsDNA library, 0.1% …; high values mean tight binding; double strand, one strand shown; scale: fold enrichment (6-mer frequency, TF over GST control).
With CGACTC, the binding signal was 1.42.
In turn, ATCACC showed a binding signal of 1.14.
Turning to TGATGG, the binding signal was determined as 1.34.
TTACCC showed a binding signal of 1.34.
The value for ATTACG was 1.2.
The value for AGAATT was 1.12; that for GGTTTT was 1.12.
CTTCTA: the binding signal came out at 1.43.
The value for CCTATT was 1.47.
The value for TTTCGA was 1.4; that for TACCAA was 1.19.
Sequence CCCATT had a binding signal of 1.32.
The value for TTTTGC was 1.37; that for TCCAAT was 1.19; that for ACTTAT was 1.46.
In turn, CCTCAC gave a binding signal of 1.29.
The value for CTTGAT was 1.42.
AATGAG returned a binding signal of 1.04.
The value for TCTGAT was 1.25; that for AATACA was 1.38.
In turn, CACAAT registered a binding signal of 1.15.
Sequence CAACCA showed a binding signal of 1.06.
The value for TCCCGC was 1.42.
TAGGTT returned a binding signal of 1.07.
As for GCTTTA, the binding signal is 1.07.
In the case of ACTTTC, the binding signal came to 1.52.
On to GCTCAG, for which the binding signal came out at 1.2.
The value for ACTCTC was 1.59.
As to GTCCCT, the binding signal was 1.27.
Take TATTCT: the binding signal stood at 1.27.
On to GATGAA, for which the binding signal was 1.17.
TCGACT: the binding signal is 1.45.
For GTCTTT, the binding signal was found to be 1.35.
As to GGTCCC, the binding signal worked out at 1.16.
The value for CTTGAC was 1.24; that for ACATAC was 1.18.
Consider TCCCTT, for which the binding signal was 1.58.
The value for CTCGCC was 1.29; that for CCTGGT was 1.43.

The record behind these values is publication PMC7862700.
